{
  "source": "patent US6908907B2",
  "about": "“Prevention and treatment of tumor growth, metastasis, and thromboembolic complications in cancer patients” (priority 2002, dated 2005)",
  "origin": "cited, not measured here",
  "system": "FGF2-induced angiogenesis",
  "conditions": "CAM model; applied to filter disk or injected intravenously 24 h after stimulation; cited from earlier work",
  "note": "Some entries share one result that the patent states for a list of compounds.",
  "data": [
    {"smiles": "CC(=O)CC(c1ccccc1)c1c(O)c2ccccc2oc1=O", "note": "(stereo not shown) [Warfarin]", "values": [
      {"measurement": "blockade of FGF2-induced angiogenesis", "value": "80-100%"}
    ]}
  ]
}
